Measured values taken from article PMC10729982.

Chains of the proteins cited; added tags and fusions are not shown. Lines headed by an entry give the natural chain unless they say otherwise; changes in a name come on top.
UniProt Q27309: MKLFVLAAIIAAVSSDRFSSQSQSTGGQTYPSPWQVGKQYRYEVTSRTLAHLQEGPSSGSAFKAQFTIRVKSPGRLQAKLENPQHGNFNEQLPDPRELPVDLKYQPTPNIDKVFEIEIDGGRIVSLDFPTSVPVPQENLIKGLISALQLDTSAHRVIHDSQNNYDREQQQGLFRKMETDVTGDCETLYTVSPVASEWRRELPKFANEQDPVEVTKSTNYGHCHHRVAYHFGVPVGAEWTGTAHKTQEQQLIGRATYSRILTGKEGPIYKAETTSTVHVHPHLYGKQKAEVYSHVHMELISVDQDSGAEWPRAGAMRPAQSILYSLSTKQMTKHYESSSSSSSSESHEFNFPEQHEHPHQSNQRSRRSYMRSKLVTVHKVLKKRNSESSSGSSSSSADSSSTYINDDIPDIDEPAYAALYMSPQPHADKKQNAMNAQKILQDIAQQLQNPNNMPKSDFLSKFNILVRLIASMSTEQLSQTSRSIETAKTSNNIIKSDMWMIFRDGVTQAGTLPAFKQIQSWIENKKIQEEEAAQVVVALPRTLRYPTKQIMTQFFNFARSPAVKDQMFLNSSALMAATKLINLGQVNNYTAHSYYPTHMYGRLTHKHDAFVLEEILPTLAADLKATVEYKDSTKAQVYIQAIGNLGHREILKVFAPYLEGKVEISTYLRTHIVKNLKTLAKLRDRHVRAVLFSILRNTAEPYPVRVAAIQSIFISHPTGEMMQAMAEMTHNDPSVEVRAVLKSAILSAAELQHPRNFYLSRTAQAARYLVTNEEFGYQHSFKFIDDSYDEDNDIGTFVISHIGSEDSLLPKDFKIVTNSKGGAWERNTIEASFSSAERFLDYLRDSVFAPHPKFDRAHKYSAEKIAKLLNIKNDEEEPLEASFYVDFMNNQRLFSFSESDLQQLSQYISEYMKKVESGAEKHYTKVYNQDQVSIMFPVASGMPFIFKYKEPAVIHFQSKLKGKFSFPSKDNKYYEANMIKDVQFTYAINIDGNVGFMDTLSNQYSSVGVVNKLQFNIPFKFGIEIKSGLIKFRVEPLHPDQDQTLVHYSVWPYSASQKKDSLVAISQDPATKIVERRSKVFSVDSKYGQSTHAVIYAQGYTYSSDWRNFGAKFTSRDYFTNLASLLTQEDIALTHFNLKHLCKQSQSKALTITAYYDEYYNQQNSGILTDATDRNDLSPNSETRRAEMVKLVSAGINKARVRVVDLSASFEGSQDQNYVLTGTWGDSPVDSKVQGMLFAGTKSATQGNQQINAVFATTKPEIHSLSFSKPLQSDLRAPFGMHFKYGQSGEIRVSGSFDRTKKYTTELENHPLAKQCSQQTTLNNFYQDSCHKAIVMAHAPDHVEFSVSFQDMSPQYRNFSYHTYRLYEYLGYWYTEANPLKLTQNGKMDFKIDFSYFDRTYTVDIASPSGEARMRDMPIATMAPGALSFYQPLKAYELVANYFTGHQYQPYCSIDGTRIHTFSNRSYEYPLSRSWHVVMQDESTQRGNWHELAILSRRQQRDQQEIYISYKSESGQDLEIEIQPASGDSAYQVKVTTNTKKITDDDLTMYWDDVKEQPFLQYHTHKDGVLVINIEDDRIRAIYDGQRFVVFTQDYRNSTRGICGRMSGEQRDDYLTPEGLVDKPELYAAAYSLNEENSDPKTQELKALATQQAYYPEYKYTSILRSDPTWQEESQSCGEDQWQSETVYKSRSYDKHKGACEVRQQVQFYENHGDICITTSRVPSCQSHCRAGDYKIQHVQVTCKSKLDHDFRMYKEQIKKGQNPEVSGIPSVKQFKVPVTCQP

T1: SWP26, native on the surface of N. bombycis spores (N. bombycis (endogenous on spores)) (UniProt B9UJ97)
T1 sequence: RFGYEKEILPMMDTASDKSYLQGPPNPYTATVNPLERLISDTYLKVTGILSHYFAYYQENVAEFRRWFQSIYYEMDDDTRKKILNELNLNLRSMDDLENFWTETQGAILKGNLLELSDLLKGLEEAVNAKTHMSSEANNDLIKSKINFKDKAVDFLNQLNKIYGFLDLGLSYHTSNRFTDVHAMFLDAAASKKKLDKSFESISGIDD

T2: SWP30, native on the surface of N. bombycis spores (N. bombycis (endogenous on spores)) (UniProt B3STN5)
T2 sequence: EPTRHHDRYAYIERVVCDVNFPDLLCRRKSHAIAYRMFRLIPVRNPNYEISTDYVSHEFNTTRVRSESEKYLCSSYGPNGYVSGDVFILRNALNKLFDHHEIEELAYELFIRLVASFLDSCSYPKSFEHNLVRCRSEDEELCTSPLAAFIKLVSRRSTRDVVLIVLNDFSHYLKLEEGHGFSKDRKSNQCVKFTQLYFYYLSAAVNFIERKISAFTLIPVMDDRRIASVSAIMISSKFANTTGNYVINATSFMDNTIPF

T3: SWP12, native on the surface of N. bombycis spores (N. bombycis (endogenous on spores)) (UniProt B3STP6)
T3 sequence: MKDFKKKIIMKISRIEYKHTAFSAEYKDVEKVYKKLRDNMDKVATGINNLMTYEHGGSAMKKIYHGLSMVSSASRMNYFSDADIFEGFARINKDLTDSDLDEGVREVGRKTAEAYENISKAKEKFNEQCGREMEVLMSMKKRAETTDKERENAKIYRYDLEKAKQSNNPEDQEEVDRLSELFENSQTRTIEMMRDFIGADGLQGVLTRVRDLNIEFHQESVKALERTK

B1: N. bombycis spore wall protein SWP12, yeast two-hybrid fusion (protein, UniProt B3STP6 1-228)
chain: T3 sequence
B2: N. bombycis spore wall protein SWP26, yeast two-hybrid fusion (protein, UniProt B9UJ97 1-223)
chain: MNIIIFSLMTISFLRARFGYEKEILPMMDTASDKSYLQGPPNPYTATVNPLERLISDTYLKVTGILSHYFAYYQENVAEFRRWFQSIYYEMDDDTRKKILNELNLNLRSMDDLENFWTETQGAILKGNLLELSDLLKGLEEAVNAKTHMSSEANNDLIKSKINFKDKAVDFLNQLNKIYGFLDLGLSYHTSNRFTDVHAMFLDAAASKKKLDKSFESISGIDD
B3: N. bombycis spore wall protein SWP30, yeast two-hybrid fusion (protein, UniProt B3STN5 1-278)
chain: MNILLATASFVLSLGFVKAEPTRHHDRYAYIERVVCDVNFPDLLCRRKSHAIAYRMFRLIPVRNPNYEISTDYVSHEFNTTRVRSESEKYLCSSYGPNGYVSGDVFILRNALNKLFDHHEIEELAYELFIRLVASFLDSCSYPKSFEHNLVRCRSEDEELCTSPLAAFIKLVSRRSTRDVVLIVLNDFSHYLKLEEGHGFSKDRKSNQCVKFTQLYFYYLSAAVNFIERKISAFTLIPVMDDRRIASVSAIMISSKFANTTGNYVINATSFMDNTIPF
B4: SWP12-MBP (protein, UniProt B3STP6 1-228)
chain: T3 sequence
B5: SWP26-MBP (protein, UniProt B9UJ97 17-223)
chain: T1 sequence
B6: SWP30-MBP (protein, UniProt B3STN5 20-278)
chain: T2 sequence

Experiments:
[1] = molecular target: T1, SWP26, native on the surface of N. bombycis spores (N. bombycis (endogenous on spores)); test: binding to spores after antibody blocking, western blot; spores incubated with antibodies (anti-SWP7, anti-SWP12, anti-SWP26, anti-SWP30) at 4°C for 12 h, then with female hemolymph (BmVg) for 2 h at 4°C; washed three times with PBST; BmVg adhering to spores detected by western blot
[2] = molecular target: T2, SWP30, native on the surface of N. bombycis spores (N. bombycis (endogenous on spores)); test: as above
[3] = molecular target: T3, SWP12, native on the surface of N. bombycis spores (N. bombycis (endogenous on spores)); test: as above
[4] = molecular target: BmVg-VWD (von Willebrand domain of B. mori vitellogenin), yeast two-hybrid fusion (B. mori) (UniProt Q27309); test: two-hybrid; bait (pGBKT7) and prey (pGADT7) plasmids co-transformed into yeast Y2HGold; screened on SD/-Ade/-His/-Leu/-Trp with X-α-gal (QDO) plates; which partner was bait is not stated
[5] = molecular target: His-VWD (His-tagged von Willebrand domain of B. mori vitellogenin) (B. mori) (UniProt Q27309); test: pull-down; His-VWD or His-DUF1943 incubated with MBP and SWPs-MBP proteins, Dynabeads His-Tag Isolation & Pulldown kit; western blot with anti-MBP antibody; both purified

| Molecule | binding [4] | binding [5] | other results |
| --- | --- | --- | --- |
| B. mori vitellogenin (BmVg), endogenous in the hemolymph of female pupae (from UniProt Q27309) |  |  | binding [1]: binds; binding [2]: binds; binding [3]: binds |
| B1 | binds |  |  |
| B2 | binds |  |  |
| B3 | binds |  |  |
| B4 |  | binds |  |
| B5 |  | binds |  |
| B6 |  | binds |  |

Results are given in words; binding and its absence hold for the method and conditions named. A result given as binding can be weak or reduced; the word gives no strength. For part of these data: Sequences can lack the tags named with a protein.
